Measurements as given in the supplement of paper PMC6331611.
± gives the standard deviation of the averaged measurements. In all, about 1,600 compounds were measured (“normalized growth (OD600, IQM-normalized) in LPM”: median about 1, lowest 2% from about 0.014 on). The list shows a part of the results.

Tested on: Salmonella enterica serovar Typhimurium SL1344
Assay: normalized growth (OD600, IQM-normalized) in LPM (fraction of plate interquartile mean); higher = more bacterial growth (less inhibition)
Conditions: LPM pH 5.8; 10 µM; 16 h

| SMILES | normalized growth |
| --- | --- |
| CN(C)CCN(Cc1ccccc1)c1ccccn1 | 0.906 ± 0.035 |
| CN1C(=O)CC(c2ccccc2)C1=O (centres undefined) | 1.04 ± 0.091 |
| CCN(CC)C(=O)c1cccc(C)c1 | 1.03 ± 0.03 |
| CCN(CC)C(=O)c1cccnc1 | 1.14 ± 0.095 |
| CCCN(CCC)S(=O)(=O)c1ccc(C(=O)O)cc1 | 0.918 ± 0.046 |
| C[C@]12CC[C@@H]3c4ccc(O)cc4CC[C@H]3[C@@H]1CC[C@@H]2O | 1.15 ± 0.065 |
| CN(C)CC/C=C1/c2ccccc2Sc2ccc(Cl)cc21 | 1.11 ± 0.012 |
| CN(C)CCOC(c1ccccc1)c1ccccc1 | 0.998 ± 0.038 |
| COc1ccc2[nH]c([S+]([O-])Cc3ncc(C)c(OC)c3C)nc2n1 (centres undefined) | 0.792 ± 0.058 |
| CC1=C(/C=C/C(C)=C/C=C/C(C)=C/C(=O)O)C(C)(C)CCC1 | 0.951 ± 0.06 |
| NC[C@@H]1CC[C@@H](N)[C@@H](O[C@H]2[C@H](O)[C@@H](O[C@H]3O[C@H](CO)[C@@H](O)[C@H](N)[C@H]3O)[C@H](N)C[C@@H]2N)O1 | 0.966 ± 0.085 |
| N=C(N)NS(=O)(=O)c1ccc(N)cc1 | 1.02 ± 0.067 |
| CC(=O)Oc1ccccc1C(=O)O | 0.748 ± 0.067 |
| Cc1ncc(CO)c(CO)c1O | 1.08 ± 0.056 |
| CC1(C)[C@H](C(=O)O)N2C(=O)C[C@H]2S1(=O)=O | 1.08 ± 0.038 |
| COc1cc2c3cc1Oc1cc(ccc1O)C[C@@H]1c4c(cc(OC)c(O)c4Oc4ccc(cc4)C[C@@H]3N(C)CC2)CC[N+]1(C)C | 1.1 ± 0.013 |
| COc1cc(C(=O)NCCCCCC(=O)O)cc(OC)c1OC | 1.05 ± 0.076 |
| N[C@@H](CCC(=O)N[C@@H](CS)C(=O)NCC(=O)O)C(=O)O | 1.04 ± 0.057 |
| CC1=C(C(=O)O)N2C(=O)[C@@H](NC(=O)[C@H](N)C3=CCC=CC3)[C@H]2SC1 | 0.985 ± 0.054 |
| N[C@@H]1CONC1=O | 1 ± 0.038 |
| CCCCC(CC)CCC(CC(C)C)OS(=O)(=O)O (centres undefined) | 0.798 ± 0.03 |
| O=C(O)COCCN1CCN(C(c2ccccc2)c2ccc(Cl)cc2)CC1 (centres undefined) | 1.04 ± 0.034 |
| Clc1ccc(CO/N=C(\Cn2ccnc2)c2ccc(Cl)cc2Cl)c(Cl)c1 | 1.01 ± 0.057 |

By substructure: the entries above with a Cl atom

| SMILES | normalized growth |
| --- | --- |
| CN(C)CC/C=C1/c2ccccc2Sc2ccc(Cl)cc21 | 1.11 ± 0.012 |
| O=C(O)COCCN1CCN(C(c2ccccc2)c2ccc(Cl)cc2)CC1 (centres undefined) | 1.04 ± 0.034 |
| Clc1ccc(CO/N=C(\Cn2ccnc2)c2ccc(Cl)cc2Cl)c(Cl)c1 | 1.01 ± 0.057 |

Following part

| SMILES | normalized growth |
| --- | --- |
| CC(=O)O[C@]1(C(C)=O)CC[C@H]2[C@@H]3C=C(Cl)C4=CC(=O)[C@@H]5C[C@@H]5[C@]4(C)[C@H]3CC[C@@]21C | 0.991 ± 0.011 |
| O=C1c2ccccc2C(=O)C1c1ccc(Cl)cc1 | 1.09 ± 0.019 |
| COc1ccc2cc([C@H](C)CO)ccc2c1 | 1.15 ± 0.059 |
| C#C[C@]1(OC(C)=O)CC[C@H]2[C@@H]3CCC4=CC(=NO)CC[C@@H]4[C@H]3CC[C@@]21CC (mixture of isomers) | 1.01 ± 0.049 |
| COc1cc2nc(N(C)CCCNC(=O)C3CCCO3)nc(N)c2cc1OC (centres undefined) | 1.09 ± 0.051 |
| Clc1ccc(Cn2c(CN3CCCC3)nc3ccccc32)cc1 | 1.07 ± 0.05 |
| CCCCCCCCCCCCCCCC(=O)OC[C@@H](NC(=O)C(Cl)Cl)[C@H](O)c1ccc([N+](=O)[O-])cc1 | 1.04 ± 0.082 |
| Cc1cc(C(C)(C)C)c(O)c(C(C)(C)C)c1 | 0.938 ± 0.087 |
| C#CCN[C@@H]1CCc2ccccc21 | 1.09 ± 0.063 |
| CCOc1nc2cccc(C(=O)OCc3oc(=O)oc3C)c2n1Cc1ccc(-c2ccccc2-c2noc(=O)[nH]2)cc1 | 0.827 ± 0.052 |
| O=C(O)c1cn(C2CC2)c2cc(N3CCNCC3)c(F)cc2c1=O | 0.0145 ± 0.0063 |
| CC(=O)[C@@]1(O)CC[C@H]2[C@@H]3C[C@H](C)C4=CC(=O)C=C[C@]4(C)[C@@]3(F)[C@@H](O)C[C@@]21C | 0.582 ± 0.039 |
| CCc1nc(N)nc(N)c1-c1ccc(Cl)cc1 | 0.929 ± 0.046 |
| C1CCC(C(CC2CCCCN2)C2CCCCC2)CC1 (centres undefined) | 1 ± 0.043 |
| CN1CC(=O)N2[C@H](c3ccc4c(c3)OCO4)c3[nH]c4ccccc4c3C[C@@H]2C1=O | 1.19 ± 0.024 |
| CCC/C=C\C=C/C(=O)N[C@@H](CC(N)=O)C(=O)NC(CC(N)=O)C(=O)N[C@@H](C(=O)N[C@H](CCCN)C(=O)N[C@@H](C(=O)N[C@@H](C(=O)N[C@@H](C(=O)N[C@H](C(=O)N[C@@H](Cc1ccccc1)C(=O)N[C@H](CCCN)C(=O)NC(C(=O)N[C@H](C(=O)NC(C(=O)NCC(=O)N[C@@H](CC(C)C)C(=O)N[C@H](C)C(=O)NC(C(=O)O)C1CCC(O)C(Cl)C1)C1CCC(O)CC1)[C@H](C)O)C1CCC(O)CC1)[C@H](C)O)C1CCC(O)CC1)C1CCC(O)CC1)[C@H](C)O)C1CCC(O)CC1 (some centres undefined) [RAMOPLANIN [A2 shown; 2mM]] | 1.31 ± 0.07 |
| COc1cc(C(=O)NCc2ccc(OCCN(C)C)cc2)cc(OC)c1OC | 1.59 ± 0.16 |
| C[C@](N)(Cc1ccc(O)c(O)c1)C(=O)O | 1.1 ± 0.042 |
| Clc1ccc(C(Cn2ccnc2)OCc2ccsc2Cl)c(Cl)c1 (centres undefined) | 1.04 ± 0.037 |
| C[C@H]1c2cccc(O)c2C(=O)C2=C(O)[C@]3(O)C(=O)C(C(N)=O)=C(O)[C@@H](N(C)C)[C@@H]3[C@@H](O)[C@@H]21 | 0.0125 ± 0.00056 |
| O=C1/C(=C/c2cccs2)CCC/C1=C\c1cccs1 | 1.19 ± 0.041 |
| CCOC(=O)COc1ccc2c(=O)cc(-c3ccccc3)oc2c1 | 1.01 ± 0.035 |
| Cc1ccc(NC(=O)c2ccc(CN3CCN(C)CC3)cc2)cc1Nc1nccc(-c2cccnc2)n1 | 0.922 ± 0.042 |

| SMILES | normalized growth |
| --- | --- |
| O=C(O)C(=O)O.[NH-][C@@H]1CCCC[C@H]1[NH-].[Pt+2] | 0.742 ± 0.017 |
| Cc1onc(-c2ccccc2Cl)c1C(=O)N[C@@H]1C(=O)N2[C@@H]1SC(C)(C)[C@@H]2C(=O)O | 1.15 ± 0.022 |
| CN[C@@H]1[C@H](O)[C@H](NC)[C@H]2O[C@@]3(O)C(=O)C[C@@H](C)O[C@H]3O[C@@H]2[C@H]1O | 0.972 ± 0.042 |
| NS(=O)(=O)c1cc2c(cc1Cl)NC(C(Cl)Cl)NS2(=O)=O (centres undefined) | 0.94 ± 0.12 |
| CCCCCCCCCCCCCCCCCCCCCCO | 1.11 ± 0.1 |
| CC(=O)NC(Cc1ccccc1)C(=O)O (centres undefined) | 0.957 ± 0.064 |
| COc1ccc(O)cc1 | 0.93 ± 0.038 |
| CCCCCCOC(=O)NC(=N)c1ccc(NCc2nc3cc(C(=O)N(CCC(=O)OCC)c4ccccn4)ccc3n2C)cc1 | 0.957 ± 0.054 |
| NCCCC(=O)O [gamma-AMINOBUTYRIC ACID] | 0.983 ± 0.046 |
| C[C@@H]1NC(=O)[C@@H](N)CNC(=O)[C@H](C2CCNC(=N)N2)NC(=O)/C(=C/NC(N)=O)NC(=O)[C@H](CNC(=O)CC(N)CCCN)NC1=O.N=C1NCC[C@H]([C@@H]2NC(=O)/C(=C/NC(N)=O)NC(=O)[C@H](CNC(=O)C[C@@H](N)CCCN)NC(=O)[C@H](CO)NC(=O)[C@@H](N)CNC2=O)N1 | 0.985 ± 0.046 |
| CC12CCC(CC1=O)C2(C)C (centres undefined) | 0.973 ± 0.024 |
| CN[C@@H]1[C@@H](O[C@H]2O[C@H](CO)[C@@H](N)[C@H](O)[C@H]2O)OC2C[C@@H](N)[C@@H](O[C@H]3[C@H](O)[C@@H](O)[C@H](N)C[C@@H]3N)OC2[C@@H]1O (some centres undefined) | 1.08 ± 0.042 |
| O=C(O)CCNC(=O)c1ccccc1 | 1.1 ± 0.049 |
| O=C(N[C@H](CO)[C@H](O)c1ccc([N+](=O)[O-])cc1)C(Cl)Cl | 0.0146 ± 0.00075 |
| CCC[C@@H]1C[C@@H](C(=O)N[C@@H]([C@H]2O[C@H](SC)[C@H](O)[C@@H](O)[C@H]2O)[C@H](C)Cl)N(C)C1 | 1.18 ± 0.03 |
| C[n+]1c2cc(N)ccc2cc2ccc(N)cc21 | 0.862 ± 0.023 |
| CC1=NN(c2ccccc2)C(=O)C1 | 0.902 ± 0.026 |
| Cn1cnc2c1c(=O)[nH]c(=O)n2C | 0.992 ± 0.019 |
| CC(C)(CO)C(O)C(=O)NCCCO (centres undefined) | 0.985 ± 0.02 |
| CCOc1ccc2ccccc2c1C(=O)N[C@@H]1C(=O)N2[C@@H]1SC(C)(C)[C@@H]2C(=O)O | 0.96 ± 0.074 |
| CCN(CC)CCNC(=O)c1cc(Cl)c(N)cc1OC | 1.11 ± 0.024 |
| OCc1cccnc1 | 1.22 ± 0.021 |
| CC(C)[N+](C)(CCOC(=O)C1c2ccccc2Oc2ccccc21)C(C)C | 1.037 ± 0.0044 |

| SMILES | normalized growth |
| --- | --- |
| CN1CCC[C@@H]1Cc1c[nH]c2ccc(CCS(=O)(=O)c3ccccc3)cc12 | 0.907 ± 0.065 |
| CN(C)CCC=C1c2ccccc2COc2ccccc21 | 1.08 ± 0.054 |
| Cc1cccc(C)c1OCC(C)N (centres undefined) | 1.07 ± 0.054 |
| CN1[C@@H]2CC[C@H]1C[C@@H](OC(=O)c1c[nH]c3ccccc13)C2 | 1.09 ± 0.077 |
| CC(=O)[C@H]1CC[C@H]2[C@@H]3C=CC4=CC(=O)CC[C@@]4(C)[C@@H]3CC[C@]12C | 1.04 ± 0.014 |
| Cc1cc(=O)[nH]c(=S)[nH]1 | 1.16 ± 0.029 |
| COc1ccccc1OCC(O)CO (centres undefined) | 1.01 ± 0.042 |
| CC[C@]1(O)C[C@H]2CN(CCc3c([nH]c4ccccc34)[C@@](C(=O)OC)(c3cc4c(cc3OC)N(C=O)[C@H]3[C@@](O)(C(=O)OC)[C@H](OC(C)=O)[C@]5(CC)C=CCN6CC[C@]43[C@@H]65)C2)C1 | 1.03 ± 0.037 |
| NC[C@@H]1O[C@H](O[C@H]2[C@@H](O)[C@H](O[C@@H]3[C@@H](O)[C@H](N)C[C@H](N)[C@H]3O[C@H]3O[C@H](CO)[C@@H](O)[C@H](O)[C@H]3N)O[C@@H]2CO)[C@H](N)[C@@H](O)[C@@H]1O | 1.07 ± 0.027 |
| Cc1c(N(C)C)c(=O)n(-c2ccccc2)n1C | 0.954 ± 0.035 |
| Oc1c(Cl)cc(Cl)c(Cl)c1Cc1c(O)c(Cl)cc(Cl)c1Cl | 1 ± 0.093 |
| CCOC(=O)C1=C(COCCN)NC(C)=C(C(=O)OC)C1c1ccccc1Cl (centres undefined) | 0.992 ± 0.031 |
| COc1ccc(/C=C/C(=O)Nc2ccccc2C(=O)O)cc1OC | 1.05 ± 0.054 |
| CN(C)C(=O)C(CCN1CCC(O)(c2ccc(Cl)cc2)CC1)(c1ccccc1)c1ccccc1 | 0.959 ± 0.047 |
| CC(=O)C1C(=O)C=C(C)OC1=O (centres undefined) | 1.12 ± 0.37 |
| Nc1nc2[nH]cnc2c(=S)[nH]1 | 0.63 ± 0.084 |
| O=C1c2c(O)cccc2C([C@@H]2O[C@H](CO)[C@@H](O)[C@H](O)[C@H]2O)c2cc(CO)cc(O)c21 (some centres undefined) | 1 ± 0.043 |
| CO/N=C(\C(=O)N[C@@H]1C(=O)N2C(C(=O)O)=C(CSc3nnnn3C)CS[C@H]12)c1csc(N)n1 | 0.0243 ± 0.012 |
| CC(C(=O)O)c1ccc2c(c1)[nH]c1ccc(Cl)cc12 (centres undefined) | 1.037 ± 0.0088 |
| C[C@H]1O[C@@H](O[C@H]2[C@@H](O)C[C@H](O[C@H]3[C@@H](O)C[C@H](O[C@H]4CC[C@@]5(C)[C@H](CC[C@@H]6[C@@H]5C[C@@H](O)[C@]5(C)[C@@H](C7=CC(=O)OC7)CC[C@]65O)C4)O[C@@H]3C)O[C@@H]2C)C[C@H](O)[C@@H]1O | 0.981 ± 0.04 |
